{
  "source": "paper doi:10.1101/2024.06.14.599074",
  "about": "“A higher order PUF complex is central to regulation of C. elegans germline stem cells” (bioRxiv, 2024)",
  "binders": {"B1": {"name": "LST-1^19-98(A^mB^m) (domain or fragment, UniProt P91820 19-98)", "chain": "STIAYSKSQHEAPAQLAQLRSEIKPLIPLNQPSNFWESSQDSGVLSSLSSSPQQRSGLRSQALHATAIEKNKRVRAMIPQ"}},
  "key": {"[1]": {"target": "T1, C. elegans FBF-2 RBD+CT (residues 164–632) (C. elegans) (UniProt Q09312)", "T1 sequence": "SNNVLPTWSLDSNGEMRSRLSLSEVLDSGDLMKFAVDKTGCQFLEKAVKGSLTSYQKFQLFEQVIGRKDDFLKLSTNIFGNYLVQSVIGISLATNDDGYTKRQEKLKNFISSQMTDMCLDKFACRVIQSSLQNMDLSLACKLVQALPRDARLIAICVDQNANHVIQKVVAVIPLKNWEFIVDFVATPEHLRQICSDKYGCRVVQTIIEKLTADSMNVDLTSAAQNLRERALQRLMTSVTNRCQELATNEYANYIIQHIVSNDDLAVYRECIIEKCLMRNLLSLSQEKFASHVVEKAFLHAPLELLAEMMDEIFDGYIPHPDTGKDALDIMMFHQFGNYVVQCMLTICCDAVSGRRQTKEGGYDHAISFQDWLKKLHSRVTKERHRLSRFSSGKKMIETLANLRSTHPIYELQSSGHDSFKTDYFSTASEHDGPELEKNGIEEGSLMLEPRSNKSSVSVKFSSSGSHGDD", "assay": "condition: LST-1 100–400 μM in the syringe, FBF-2 10–30 μM in the cell; ITC; LST-1 (100–400 μM) titrated from the syringe into the cell containing FBF-2 (10–30 μM); 20 °C; 20 mM HEPES pH 7.4, 150 mM NaCl, 0.5 mM TCEP; no RNA; one-site model; two technical replicates; both purified"}, "[2]": {"target": "T2, FBF-2 RBD protein (residue 164–575) (C. elegans) (UniProt Q09312)", "T2 sequence": "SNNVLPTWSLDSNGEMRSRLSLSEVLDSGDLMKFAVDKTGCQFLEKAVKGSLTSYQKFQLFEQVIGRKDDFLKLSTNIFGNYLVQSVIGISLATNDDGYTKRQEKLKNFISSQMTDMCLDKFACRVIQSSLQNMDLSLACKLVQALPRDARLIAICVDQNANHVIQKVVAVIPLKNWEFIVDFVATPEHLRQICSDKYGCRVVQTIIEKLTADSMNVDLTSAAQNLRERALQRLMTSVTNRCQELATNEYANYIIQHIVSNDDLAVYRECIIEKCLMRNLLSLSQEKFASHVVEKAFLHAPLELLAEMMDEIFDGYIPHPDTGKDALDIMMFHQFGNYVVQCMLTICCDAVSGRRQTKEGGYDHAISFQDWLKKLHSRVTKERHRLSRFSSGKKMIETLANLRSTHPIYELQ", "assay": "condition: LST-1 100–400 μM in the syringe, FBF-2 10–30 μM in the cell; ITC; LST-1 (100–400 μM) titrated from the syringe into the cell containing FBF-2 (10–30 μM); 20 °C; 20 mM HEPES pH 7.4, 150 mM NaCl, 0.5 mM TCEP; no RNA; one-site model; two technical replicates; both purified"}},
  "note": "No constants are given. Whether binding was seen depends on the method and setting.",
  "data": [
    {"binder": "B1", "values": [
      {"measurement": "binding", "setting": "[1]", "value": "no binding"},
      {"measurement": "binding", "setting": "[2]", "value": "no binding"}
    ]}
  ]
}
